{"source": "the supplement of paper PMC3334620", "note": "In all, about 33,000 sequences were measured (“E-score (-0.5 to 0.5)”: median about -0.0014, highest 2% from about 0.25 on). Some of the results follow.", "data": [{"molecular_target": "T1, Cad1 (UniProt P24813)", "T1 sequence": "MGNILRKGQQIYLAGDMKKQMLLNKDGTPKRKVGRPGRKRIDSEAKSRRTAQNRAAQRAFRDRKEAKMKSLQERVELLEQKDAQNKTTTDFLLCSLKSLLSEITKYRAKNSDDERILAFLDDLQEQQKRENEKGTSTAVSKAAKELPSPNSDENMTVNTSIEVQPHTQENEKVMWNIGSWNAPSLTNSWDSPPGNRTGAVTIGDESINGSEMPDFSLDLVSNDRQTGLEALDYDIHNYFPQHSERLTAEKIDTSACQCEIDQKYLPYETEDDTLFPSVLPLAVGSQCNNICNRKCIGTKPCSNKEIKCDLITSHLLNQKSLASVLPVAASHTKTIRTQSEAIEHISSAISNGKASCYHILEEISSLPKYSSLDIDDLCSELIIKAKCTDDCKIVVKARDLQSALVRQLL", "test": "PBM E-score (8-mer binding enrichment) (E-score (-0.5 to 0.5)); higher = stronger / more preferred TF binding", "conditions": "protein concentration: 100 nM; construct: GST-full length", "experimental": "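Universal 'all 10-mer' protein binding microarrays (Agilent AMADID 015681) probed with GST-tagged S. cerevisiae TFs (full-length or DBD) made by in vitro transcription/translation (PURExpress), about 100-200 nM. Bound TF was detected with fluorescent anti-GST. Each ungapped 8-mer (which stands for itself and its reverse complement) is scored by the PBM enrichment score (E-score), a modified Wilcoxon-Mann-Whitney statistic from -0.5 to +0.5, computed with the Universal PBM Analysis Suite. Scale: above 0.35 generally sequence-specific binding.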", "values": [{"sequence": "CAAAGCTG", "PBM E-score": 0.13}, {"sequence": "ATATGAGC", "PBM E-score": 0.123}, {"sequence": "GGCATACC", "PBM E-score": -0.103}, {"sequence": "CAATAAGC", "PBM E-score": 0.0179}, {"sequence": "AGTAGTAC", "PBM E-score": 0.235}, {"sequence": "CACTACTA", "PBM E-score": 0.0856}, {"sequence": "ATTCGCAA", "PBM E-score": 0.156}, {"sequence": "AAAGGCAA", "PBM E-score": -0.0149}, {"sequence": "CACCCATG", "PBM E-score": -0.0677}, {"sequence": "GTATCCCA", "PBM E-score": -0.128}, {"sequence": "GGGGTCTA", "PBM E-score": -0.0356}, {"sequence": "GACCTTGC", "PBM E-score": -0.172}, {"sequence": "GCATAGCA", "PBM E-score": 0.107}, {"sequence": "AGGTGCAC", "PBM E-score": 0.0804}, {"sequence": "AAGTTTAT", "PBM E-score": 0.178}, {"sequence": "AATATAGA", "PBM E-score": 0.168}, {"sequence": "AAACTCCT", "PBM E-score": -0.311}, {"sequence": "ACAGAAAA", "PBM E-score": 0.281}, {"sequence": "CCGCAAGA", "PBM E-score": 0.147}, {"sequence": "AGATCATA", "PBM E-score": 0.162}, {"sequence": "CCTCATCA", "PBM E-score": 0.019}, {"sequence": "TCGATTCA", "PBM E-score": 0.0497}, {"sequence": "CCCACGCC", "PBM E-score": -0.271}, {"sequence": "ATACGAAT", "PBM E-score": 0.107}, {"sequence": "GTTACAGA", "PBM E-score": -0.237}, {"sequence": "ATCTCTCG", "PBM E-score": -0.0747}, {"sequence": "GCAGTTAC", "PBM E-score": 0.128}, {"sequence": "CATTATAG", "PBM E-score": -0.0283}, {"sequence": "GACGCCTC", "PBM E-score": -0.0937}, {"sequence": "GGGAATTA", "PBM E-score": 0.173}, {"sequence": "CACTCTAA", "PBM E-score": 0.019}, {"sequence": "ACCGTTAC", "PBM E-score": 0.0129}, {"sequence": "AAGAAGGC", "PBM E-score": -0.191}, {"sequence": "CGTAGCTC", "PBM E-score": 0.109}, {"sequence": "CATTTAAG", "PBM E-score": -0.0887}, {"sequence": "GTAAAGAA", "PBM E-score": 0.135}, {"sequence": "CGAATGAC", "PBM E-score": 0.169}, {"sequence": "GTTTTGGA", "PBM E-score": -0.025}, {"sequence": "CTCGACAA", "PBM E-score": -0.0434}, {"sequence": "CAATATGG", "PBM E-score": -0.045}, {"sequence": "AACCTACG", "PBM E-score": -0.119}, {"sequence": "ATCGATAA", "PBM E-score": 0.162}, {"sequence": "ACCCGTGG", "PBM E-score": -0.231}, {"sequence": "CGGGCAAA", "PBM E-score": -0.0196}, {"sequence": "AGGCTTTA", "PBM E-score": -0.188}, {"sequence": "CAGAGCCA", "PBM E-score": -0.344}, {"sequence": "ATCCTTAC", "PBM E-score": 0.101}, {"sequence": "ATAGATGA", "PBM E-score": -0.0472}, {"sequence": "ACACGGAA", "PBM E-score": 0.0916}, {"sequence": "GGTTTCCA", "PBM E-score": -0.155}, {"sequence": "CGTTAGCA", "PBM E-score": 0.083}, {"sequence": "AGCATCGG", "PBM E-score": 0.0523}, {"sequence": "AGTTAGTA", "PBM E-score": 0.0725}, {"sequence": "ACTGCTAC", "PBM E-score": -0.026}, {"sequence": "AGCCGGCT", "PBM E-score": -0.0559}, {"sequence": "AGGATCTG", "PBM E-score": -0.145}, {"sequence": "CTTAGCCC", "PBM E-score": -0.144}, {"sequence": "GACGAAAA", "PBM E-score": 0.297}, {"sequence": "CTTAGCAC", "PBM E-score": 0.0502}, {"sequence": "GCTATAAA", "PBM E-score": -0.167}, {"sequence": "GTTGTTAA", "PBM E-score": 0.259}, {"sequence": "GCTAAGAA", "PBM E-score": -0.119}, {"sequence": "ACCATACA", "PBM E-score": -0.129}, {"sequence": "CGTAAGAG", "PBM E-score": 0.0766}, {"sequence": "ACGTACCG", "PBM E-score": 0.00529}, {"sequence": "CGTTCGTA", "PBM E-score": 0.143}, {"sequence": "GAATGATC", "PBM E-score": -0.0987}, {"sequence": "AGGTACCT", "PBM E-score": -0.0887}, {"sequence": "CCTGAATC", "PBM E-score": -0.0989}, {"sequence": "TATGGAGA", "PBM E-score": -0.0855}, {"sequence": "CGCGACCG", "PBM E-score": 0.0372}, {"sequence": "GAGAGCGC", "PBM E-score": -0.0566}, {"sequence": "AAGCTTTC", "PBM E-score": 0.236}, {"sequence": "CAAGCCGG", "PBM E-score": 0.172}, {"sequence": "TCGACTCA", "PBM E-score": 0.152}, {"sequence": "ACGCCTAT", "PBM E-score": -0.161}, {"sequence": "AAGTTTCT", "PBM E-score": 0.0467}, {"sequence": "ATCCGTCA", "PBM E-score": -0.0299}, {"sequence": "TCAGCAAA", "PBM E-score": 0.215}, {"sequence": "ATTTCCTA", "PBM E-score": 0.12}, {"sequence": "ACGGGCGG", "PBM E-score": -0.186}, {"sequence": "AAAAGTAC", "PBM E-score": 0.0242}, {"sequence": "GGTTAGTA", "PBM E-score": 0.219}, {"sequence": "ATATACAG", "PBM E-score": 0.163}, {"sequence": "ATGTTACA", "PBM E-score": 0.163}, {"sequence": "CCAGATTA", "PBM E-score": 0.0456}, {"sequence": "ACTAGTTC", "PBM E-score": 0.0748}, {"sequence": "ACCCCTTG", "PBM E-score": -0.202}, {"sequence": "CAGCTTGC", "PBM E-score": 0.021}, {"sequence": "GCGAACGC", "PBM E-score": -0.136}, {"sequence": "TAAGTTCA", "PBM E-score": 0.0639}, {"sequence": "CACTGTTC", "PBM E-score": -0.0722}, {"sequence": "CTAGCAGC", "PBM E-score": -0.00538}, {"sequence": "ATCTGCAG", "PBM E-score": 0.101}]}]}
